Positions count from the first letter of the chain named. In names and notes the source's numbering stands. No constants are given. Whether binding was seen depends on the method and setting. In cells and extracts the contact can be indirect. Some entries that bind do so weakly or less than the wild type. Tags and fused reporters may be left off the sequences shown. Each block holds one binder with its values, some of them ahead of it.
What was measured:
Assay in all cases: FRET or BRET; COS-7 cells co-transfected with mVenus and mCherry fusions, fixed with 4% paraformaldehyde; Operetta High Content Imaging System; FRET efficiencies
[1] = target: full-length human wild-type B4GalT1 fused to mVenus or mCherry (human) (UniProt P15291)
[2] = target: full-length human B4GalT1 M340E fused to mVenus or mCherry (human) (UniProt P15291)
[3] = target: full-length human B4GalT1 D315A fused to mVenus or mCherry (human) (UniProt P15291)

binding [1]: binds
B1: full-length human wild-type B4GalT1 fused to mVenus or mCherry (protein, UniProt P15291 1-398)
chain: MRLREPLLSGSAAMPGASLQRACRLLVAVCALHLGVTLVYYLAGRDLSRLPQLVGVSTPLQGGSNSAAAIGQSSGELRTGGARPPPPLGASSQPRPGGDSSPVVDSGPGPASNLTSVPVPHTTALSLPACPEESPLLVGPMLIEFNMPVDLELVAKQNPNVKMGGRYAPRDCVSPHKVAIIIPFRNRQEHLKYWLYYLHPVLQRQQLDYGIYVINQAGDTIFNRAKLLNVGFQEALKDYDYTCFVFSDVDLIPMNDHNAYRCFSQPRHISVAMDKFGFSLPYVQYFGGVSALSKQQFLTINGFPNNYWGWGGEDDDIFNRLVFRGMSISRPNAVVGRCRMIRHSRDKKNEPNPQRFDRIAHTKETMLSDGLNSLTYQVLDVQRYPLYTQITVDIGTPS

binding [2]: binds
B2: full-length human B4GalT1 M340E fused to mVenus or mCherry (protein, UniProt P15291 1-398)
chain: B1 chain with M340E

binding [3]: binds
B3: full-length human B4GalT1 D315A fused to mVenus or mCherry (protein, UniProt P15291 1-398)
chain: B1 chain with D315A

— PMC6198961, “The dimeric structure of wild-type human glycosyltransferase B4GalT1” (PLoS ONE, 2018)
